Values joined by “and” are separate entries in the source; they are usually repeats but may differ in a detail not shown here. Equal values may be shown once. Shown are results outside the selection of hits, which stands elsewhere. Records with an inconclusive call do not appear. Active and inactive are the calls of the source. Unless noted, calls follow the shape of the full dose curve.
What was measured:
[1] = target: Gonadotropin-releasing hormone receptor (Homo sapiens) (UniProt P30968); assay: Human gonadotropin-releasing hormone receptor (GnRHR) small molecule agonists, calcium flux assay in GnRHR-HEK293 cells (AID 1920063); settings: calcium flux fluorescence, agonist mode, active compounds read high; also: nearly all actives have a fitted effect of over 35% in size
Method in brief: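 Intracellular calcium rise is the read-out: engineered human GnRHR HEK293 cells, dye-loaded, are exposed to DMSO-dissolved compounds and fluorescence at Ex/Em 480/540 is tracked for 3 min.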

The chains behind the UniProt entries cited, without tags or fusion partners. Where a name states a change or a piece, a line headed by the entry shows the natural chain unless it says otherwise.
UniProt P30968: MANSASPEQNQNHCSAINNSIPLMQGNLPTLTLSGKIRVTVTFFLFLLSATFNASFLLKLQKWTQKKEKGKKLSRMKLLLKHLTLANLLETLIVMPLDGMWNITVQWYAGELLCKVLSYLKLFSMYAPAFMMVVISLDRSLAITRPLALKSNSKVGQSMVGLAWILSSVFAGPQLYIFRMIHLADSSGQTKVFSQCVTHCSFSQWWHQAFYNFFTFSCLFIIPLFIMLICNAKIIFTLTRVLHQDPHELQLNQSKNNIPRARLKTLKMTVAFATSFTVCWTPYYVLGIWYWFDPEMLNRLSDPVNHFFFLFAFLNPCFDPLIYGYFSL
UniProt Q969F8, whole entry, looked up: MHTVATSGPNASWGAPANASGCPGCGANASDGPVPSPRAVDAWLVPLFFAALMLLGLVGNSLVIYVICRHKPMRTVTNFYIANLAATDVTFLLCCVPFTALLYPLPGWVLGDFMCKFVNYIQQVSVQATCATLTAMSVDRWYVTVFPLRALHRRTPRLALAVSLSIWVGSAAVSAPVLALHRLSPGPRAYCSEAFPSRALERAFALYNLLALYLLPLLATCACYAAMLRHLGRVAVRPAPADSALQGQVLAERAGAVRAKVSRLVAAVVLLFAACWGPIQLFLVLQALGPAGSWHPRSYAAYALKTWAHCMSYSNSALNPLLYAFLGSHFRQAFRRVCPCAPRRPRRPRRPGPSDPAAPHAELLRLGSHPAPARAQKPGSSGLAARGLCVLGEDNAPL

[2] = target: KiSS-1 receptor (Homo sapiens) (UniProt Q969F8); assay: Human kisspeptin (KISS1R) small molecule agonists, calcium flux assay in KISS1R-HEK293 cells (AID 1920064; active = well fitted activation curve with a large enough effect in the repeat runs); settings: KISS1R-HEK293, calcium flux fluorescence, agonist
Method in brief: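 Concentration-response testing used 15 concentrations in triplicate on human KISS1R-expressing HEK293 cells. Calcium-dependent fluorescence (Ex/Em 480/540) was followed kinetically for 3 min after compound transfer.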

[3] = G protein-coupled receptor (GPCR) small molecule agonists, calcium flux assay: HEK293 wild type cell line counter screen (AID 1920065); settings: HEK293 WT calcium flux, fluorescence, agonist mode
Method in brief: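 Fluorescence intensity signals activation. After overnight (18 h) culture and a 1 h calcium dye load at 37 C, compounds are added by pin tool and the plate read at 480/540 nm for 3 min in 1 s steps.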

[4] = cAMP Responsive Elements (CRE) small molecule agonists, cell-based qHTS assay (AID 1963590); settings: CRE-bla HEK293T, beta-lactamase FRET ratio, 3 h
Description: (§1) U.S. Tox21 Program National Center for Advancing Translational Sciences [NCATS] Division of Preclinical Innovation [DPI] U.S. Environmental Protection Agency [EPA] National Institutes of Environmental Health Sciences [NIEHS] National Toxicology Program [NTP] U.S. Food and Drug Administration [FDA] Tox21 Assay Overview: CREB (cyclic-AMP Responsive Element Binding Protein) is a cellular transcription factor. It binds to certain DNA sequences called cAMP Responsive Elements (CRE) and regulates the transcription of the genes. […] This cell line can be used to find agonists/antagonists of the cyclic AMP signaling pathway. The activation of the report gene under culture conditions can be detected by fluorescence intensity. This cell line has been used to screen the Tox21 10K compound library to identify agonists that induce oxidative stress.
Tox21 Assay Protocol Summary: CRE-bla Hek 293T cells were suspended in assay medium (DMEM containing 10% dialyzed FBS, 0.1 mM NEAA, 1 mM sodium pyruvate and 25 mM HEPES) and dispensed at 2,000 cells/5 uL /well into 1536-well black wall/clear bottom plates using a Multidrop Combi (ThermoFisher Scientific, Waltham, MA) dispenser. After the assay plates were incubated at 37 C/5% CO2 for 18 hrs, 23 nL of compounds dissolved in DMSO, positive controls or DMSO only was transferred to the assay plate by a pintool workstation (Kalypsys, San Diego, CA). After the plates were incubated at 37 C/5% CO2 for 3 hrs, 1 uL of LiveBLAzer B/G FRET substrate (Invitrogen, Carlsbad, CA) was added to each well using Bioraptr Flying Reagent Dispenser (FRD, Aurora Discovery, San Diego, CA). The plates were incubated at room temperature for 2 h.

[5] = cAMP Responsive Elements (CRE) small molecule antagonists, cell-based qHTS assay (AID 1963591; active = well fitted inhibition curve with a large enough effect in the signal ratio in the repeat runs, not every such curve was filed as active; the % refers to the signal ratio); settings: CRE-bla HEK293T, beta-lactamase FRET ratio
Description: as §1, with “[…].” for “identify agonists that induce oxidative stress.”
Tox21 Assay Protocol Summary: CRE-bla Hek 293T cells were suspended in assay medium (DMEM containing 10% dialyzed FBS, 0.1 mM NEAA, 1 mM sodium pyruvate and 25 mM HEPES) and dispensed at 2,000 cells/4 uL /well into 1536-well black wall/clear bottom plates using a Multidrop Combi (ThermoFisher Scientific, Waltham, MA) dispenser. After the assay plates were incubated at 37 C/5% CO2 for 18 hrs, 23 nL of compounds dissolved in DMSO, positive controls or DMSO only was transferred to the assay plate by a pintool workstation (Kalypsys, San Diego, CA), followed by addition of 1 […] uL of 1.25uM NKH477 (0.25 uM as final concentration) in assay medium using a Flying Reagent Dispenser (Aurora Discovery, San Diego, CA). The plates were incubated at 37 C and 5% CO2 for 3 hrs. Then 1 uL of LiveBLAzer B/G FRET substrate (Invitrogen, Carlsbad, CA) was added to each well using Bioraptr Flying Reagent Dispenser (FRD, Aurora Discovery, San Diego, CA). The plates were incubated at room temperature for 2 h.
% is scaled to controls: 0 for no effect and ±100 for the full control effect.

Cc1ccc(O)cc1C
inactive: activity change ([1]; at 57.6 µM (top of the series)) -0.927% and 0.793% | activation ([2]; at 76.8 µM (top of the series)) 0.387% and 0.209% | activation ([3]; at 57.6 µM (top of the series)) -0.052% and -1.66% | activation ([4]; at 92.4 µM (top of the series)) 0.0482% and 0.0157% | activity change, negative = inhibition ([5]; at 92.4 µM (top of the series)) 1.23%

Cc1ccc2ccccc2c1C
inactive: activity change ([1]; at 57.6 µM (top of the series)) 0.206% and -0.45% | activation ([2]; at 76.8 µM (top of the series)) -2.4% and -1.06% | activation ([3]; at 57.6 µM (top of the series)) 0.928% and -1.78% | activation ([4]; at 92.4 µM (top of the series)) -0.0895% and 1.62% | activity change, negative = inhibition ([5]; at 92.4 µM (top of the series)) 4.88%

O=[N+]([O-])c1ccccc1Cl
inactive: activity change ([1]; at 57.6 µM (top of the series)) -1.48% | activation ([2]; at 76.8 µM (top of the series)) -2.51% | activation ([3]; at 57.6 µM (top of the series)) -0.112% | activation ([4]; at 92.4 µM (top of the series)) -0.0538% | activity change, negative = inhibition ([5]; at 92.4 µM (top of the series)) 1.06%

Oc1c(Cl)cc(Cl)cc1Cl
inactive: activity change ([1]; at 57.6 µM (top of the series)) 1.09% and -0.991% | activation ([2]; at 76.8 µM (top of the series)) 1.26% and 0.0001% | activation ([3]; at 57.6 µM (top of the series)) -0.738% and 0.212% | activation ([4]; at 92.4 µM (top of the series)) 1.02% and 1.74% | activity change, negative = inhibition ([5]; at 92.4 µM (top of the series)) 5.68% and 3.31%

CC(C)(C)c1ccc(O)cc1
inactive: activity change ([1]; at 26.4 µM (top of the series)) -0.805% | activity change ([1]; at 57.6 µM (top of the series)) 7.57% and 1.08% | activation ([2]; at 35.3 µM (top of the series)) -0.67% | activation ([2]; at 76.8 µM (top of the series)) -1.83% and 2.83% | activation ([3]; at 26.5 µM (top of the series)) -0.781% | activation ([3]; at 57.6 µM (top of the series)) 2.13% and -1.07% | activation ([4]; at 42.5 µM (top of the series)) 1.08% | activation ([4]; at 92.4 µM (top of the series)) 0.885% | activity change, negative = inhibition ([5]; at 42.4 µM (top of the series)) -9.69% | activity change, negative = inhibition ([5]; at 92.4 µM (top of the series)) -19.1%
